Results on 42 sequences are retold here after paper PMC7819943, “Rice protein-binding microarrays: a tool to detect cis-acting elements near promoter regions in rice”.

The list shows a part of the results.

The target in this experiment is T1, OsSMF1 (Oryza sativa, UniProt Q6ZLB0 1-436).
T1 sequence: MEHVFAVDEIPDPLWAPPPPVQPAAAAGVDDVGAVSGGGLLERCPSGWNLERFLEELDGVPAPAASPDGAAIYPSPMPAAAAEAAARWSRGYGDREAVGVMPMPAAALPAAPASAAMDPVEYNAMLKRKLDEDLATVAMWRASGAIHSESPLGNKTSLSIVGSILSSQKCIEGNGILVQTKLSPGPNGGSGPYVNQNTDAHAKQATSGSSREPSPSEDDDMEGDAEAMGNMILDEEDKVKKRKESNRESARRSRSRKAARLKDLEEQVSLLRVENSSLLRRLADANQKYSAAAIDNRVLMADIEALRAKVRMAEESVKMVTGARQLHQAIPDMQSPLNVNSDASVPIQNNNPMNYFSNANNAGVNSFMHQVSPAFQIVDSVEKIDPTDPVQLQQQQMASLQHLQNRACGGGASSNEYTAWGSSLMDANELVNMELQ
Description: protein-binding microarray (RPBM); PBS, 2% BSA, 51.3 ng/ul salmon testes DNA, 50 uM zinc acetate, 200 nM TF, 25 C, 1 h; high values mean tight binding. To be noted: protein: recombinant; tags: N-terminal polyhistidine and DsRed monomer fusion (pET32a); chain copies: 2; label: CyDye5-dUTP incorporated in the synthesized complementary strand; 3' TTTTT single-stranded linker to array surface; dsDNA, one strand shown. Summed up:
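The binding signal is fluorescence intensity per feature, in arbitrary units, read on an Axon 4000B scanner. Polyhistidine- and DsRed-tagged transcription factors (N-terminal fusions) from E. coli BL21-CodonPlus were purified on Ni–NTA and applied at 200 nM for 1 h at 25 °C to a double-stranded, BSA-blocked custom Agilent array in buffer with 50 µM zinc acetate.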
In the case of “CGGATACCCGGACCCGATGGGCACGGGCGTGGGTGTGACTCGGAGTCACCTAGTGCAG”, the binding signal was 3200 fluorescence intensity (a.u.).
Under “AATCTTTTGAGCCTAATTACGTCATGATTTGACAATGTGACGGAGTCACCTAGTGCAG” stands 4250 fluorescence intensity (a.u.); under “AACCCTTGCCGTCGCGGTCGTGTGATCGTGTCGTGCGCTGCGGAGTCACCTAGTGCAG”, 3720 fluorescence intensity (a.u.); under “ATCTTGTTAGTAGATGATGATGTGGCATCTTTGCATGTCACGGAGTCACCTAGTGCAG”, 18200 fluorescence intensity (a.u.).
The result for “ATCATGAATTACATCAGAGATCAGTGACACGCCATGGCAGCGGAGTCACCTAGTGCAG” reads 5380 fluorescence intensity (a.u.).
Under “CAATATGCCACTCCTATGGAGTGGCTTTAACAGGATGCCACGGAGTCACCTAGTGCAG” stands 3340 fluorescence intensity (a.u.).
As for “TTTCTCCAAGAACATCTGATCAAGAATCCGCATGGCTGAACGGAGTCACCTAGTGCAG”, the binding signal is 3210 fluorescence intensity (a.u.).
As to “TCATGGGGAGTGGTTGAACTGTTTACGCACGTACACTCTGCGGAGTCACCTAGTGCAG”, the binding signal is 3370 fluorescence intensity (a.u.).
The result for “AGGAAGGGGTGCAAAGCTGAGGTAGGAATCGGGGATGAGCCGGAGTCACCTAGTGCAG” reads 3760 fluorescence intensity (a.u.).
For the sequence “TGTTGTGTTGTTGTCCTCAATTAGTCACCAATCAACTATTCGGAGTCACCTAGTGCAG”, the binding signal is 3990 fluorescence intensity (a.u.).
As for “CTTGCATGCAACGTTACACGTAGCACACTGGACACCGGAGCGGAGTCACCTAGTGCAG”, the binding signal is 5610 fluorescence intensity (a.u.).
The result for “TTACCTCATCCGGTTTAATATATGACGTTTAGACATGCGTCGGAGTCACCTAGTGCAG” reads 3540 fluorescence intensity (a.u.); that for “CGCGCCACGTGTCTGTCCTCTCCCTGGCAAATGGCAATCCCGGAGTCACCTAGTGCAG”, 21500 fluorescence intensity (a.u.).
Turning to “TCGCACACAGCTCAGCAGCTAACTAGTCCAATGGAGCAGCCGGAGTCACCTAGTGCAG”, the binding signal is 3260 fluorescence intensity (a.u.).
Regarding “GAGAGCGGATGACATGTGATCGGGGACGTCGGTGGTGGCCCGGAGTCACCTAGTGCAG”, the binding signal is 3230 fluorescence intensity (a.u.).
On to “TACTGGTATATATCTACGTGTTTGAAGTACAACACATTAACGGAGTCACCTAGTGCAG”, for which the binding signal was 4090 fluorescence intensity (a.u.).
Take “GACGAGGATAAGGCAACAAGCTCAGTCATGGGCCGCCAACCGGAGTCACCTAGTGCAG”: the binding signal was 3520 fluorescence intensity (a.u.).
The result for “ATATTCCACCAAGCAAAAGCCACATCATGCTGTGCTGTGCCGGAGTCACCTAGTGCAG” reads 6050 fluorescence intensity (a.u.); that for “CTTATTGCTAAGTCACTCTGCTACATGTAAAAGGCATGACCGGAGTCACCTAGTGCAG”, 3380 fluorescence intensity (a.u.).
Under “CTACTGAACTGCTGACTACTATGCTCCAGGTCCAAGCCCTCGGAGTCACCTAGTGCAG” stands 3420 fluorescence intensity (a.u.).
Turning to “TAGCGCGGCTGCACAGTACAGTCCGACGTCACAGCTCACTCGGAGTCACCTAGTGCAG”, the binding signal was 49200 fluorescence intensity (a.u.).
The result for “GGAGGGAGTATTGGATTACATAAATAAAACGTATACATGTCGGAGTCACCTAGTGCAG” reads 3560 fluorescence intensity (a.u.); that for “GCGTGATTGACGCGGAACCCGAGGTGGACGGACTATGGAACGGAGTCACCTAGTGCAG”, 3390 fluorescence intensity (a.u.); that for “TTTCGGTCATGAAAACTCAGGACCAAATTTCATCCAAATACGGAGTCACCTAGTGCAG”, 29300 fluorescence intensity (a.u.).
The result for “ACATGGAGTTGAGTTGGTTAGTGTATCGAAGATTAAAATGCGGAGTCACCTAGTGCAG” reads 4100 fluorescence intensity (a.u.); that for “TGTCCGTCTCCGACCTGCCCATGCTGTCGTGCCACTACATCGGAGTCACCTAGTGCAG”, 3520 fluorescence intensity (a.u.).
Under “GATAATGGCTACCGTGCTGGATTCATGTCACCCACTTCTCCGGAGTCACCTAGTGCAG” stands 4390 fluorescence intensity (a.u.); under “GATCGAACCAAAGCCGAGTCATCGATTATCCTTATCCATTCGGAGTCACCTAGTGCAG”, 6860 fluorescence intensity (a.u.).
Turning to “TCAAAAGATTCGTCTCGCGAATTAGTCCAAGATTATGGTTCGGAGTCACCTAGTGCAG”, the binding signal is 36000 fluorescence intensity (a.u.).
As for “ATCGTGTGACGACGTCTCGTCTCGTCTCCCTCTCCCGACCCGGAGTCACCTAGTGCAG”, the binding signal is 3260 fluorescence intensity (a.u.).
Under “GCTCTCCGGGATTTGTCCTGGCAAGTGCCACAACAGCGCACGGAGTCACCTAGTGCAG” stands 3700 fluorescence intensity (a.u.); under “TTGACAATATTATTTCGCCACATCAGACCAGCCAGTACCACGGAGTCACCTAGTGCAG”, 8430 fluorescence intensity (a.u.).
The result for “TACAAGTCGCCGCGGGAGTTCGCCGGTGACGTGCGCCTTACGGAGTCACCTAGTGCAG” reads 8440 fluorescence intensity (a.u.); that for “CCATTGATTGATTATCAGTGGGCGTAATCATCAGTCTAAACGGAGTCACCTAGTGCAG”, 42100 fluorescence intensity (a.u.); that for “CTCTCCGTCTCAGTCCACTGACGATGCATGTGAGTGAGTGCGGAGTCACCTAGTGCAG”, 4340 fluorescence intensity (a.u.).
The result for “CCACCGGTGACTGGATCCCGTCCTCTCTCTGGCCGCTAGCCGGAGTCACCTAGTGCAG” reads 3860 fluorescence intensity (a.u.); that for “CTGTGTAATTAGTTTATTTTGTCTATATTTAATACTCTATCGGAGTCACCTAGTGCAG”, 29200 fluorescence intensity (a.u.).
In the case of “TATATAACTTCCAGTACCAAAATTGCGTGATTGTGCTAATCGGAGTCACCTAGTGCAG”, the binding signal is 9530 fluorescence intensity (a.u.).
Under “CGACCTGGCAGACCAACGTGGACCACGCGGCGGCGGCGGCCGGAGTCACCTAGTGCAG” stands 6130 fluorescence intensity (a.u.); under “ACACACACACACATATATATATCTGTGTGTGTGTCAAGCACGGAGTCACCTAGTGCAG”, 3300 fluorescence intensity (a.u.).
Turning to “AATCCTGTTGTTGTGGTCTATCGCTTACAACTCTAATACTCGGAGTCACCTAGTGCAG”, the binding signal is 4220 fluorescence intensity (a.u.).
Under “GAGTGCCTTTAGCTCAGCCACATCCTTCTTCATCGCTGCCCGGAGTCACCTAGTGCAG” stands 3930 fluorescence intensity (a.u.).
